Article PMC8813937
No constants are given. Whether binding was seen depends on the method and setting. Binding seen in cells or lysates may run through a third protein. A result given as binding can be weak or reduced; the word gives no strength. Sequences can lack the tags named with a protein. Each block holds one binder with its values, some of them ahead of it.

Protein sequences, listed by entry. Tags and fused reporters are not part of them. Lines headed by an entry give the natural chain unless they say otherwise; changes in a name come on top.
UniProt P49821: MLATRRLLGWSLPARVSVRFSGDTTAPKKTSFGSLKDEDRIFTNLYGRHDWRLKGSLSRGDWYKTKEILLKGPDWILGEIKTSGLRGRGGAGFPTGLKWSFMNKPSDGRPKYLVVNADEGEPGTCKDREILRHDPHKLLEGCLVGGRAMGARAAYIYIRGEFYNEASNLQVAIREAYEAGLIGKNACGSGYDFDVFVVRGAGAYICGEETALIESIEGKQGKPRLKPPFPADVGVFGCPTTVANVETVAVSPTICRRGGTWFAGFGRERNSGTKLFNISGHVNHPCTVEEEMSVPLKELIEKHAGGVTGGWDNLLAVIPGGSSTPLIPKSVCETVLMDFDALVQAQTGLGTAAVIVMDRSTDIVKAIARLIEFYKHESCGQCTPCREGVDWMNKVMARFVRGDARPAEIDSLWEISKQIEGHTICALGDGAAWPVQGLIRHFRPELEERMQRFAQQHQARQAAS

Key:
[1] = molecular target: endogenous NDUFV1 (human (endogenous in HEK293T)) (UniProt P49821); experiment: co-IP; HEK293T cells transfected with one tagged partner, the other partner endogenous; IgG as negative control
[2] = molecular target: Flag-tagged NDUFV1, full length (human) (UniProt P49821); experiment: co-IP; HEK293T cells co-transfected with both partners (exogenous, tagged or untagged); blots; protocol by reference 43
Flag-NDU-Δ80-249 (human) = Flag-NDU-Δ80-249 (human) (UniProt P49821); experiment: as above
[3] = molecular target: Flag-NDU-Δ364-448 (human) (UniProt P49821); experiment: as above
[4] = molecular target: Flag-NDU-Δ277-325 (human) (UniProt P49821); experiment: as above
[5] = molecular target: endogenous NDUFV1 (human (endogenous in HEK293T)) (UniProt P49821); experiment: co-IP; cytoplasmic and mitochondrial protein extracted from HEK293T cells transfected with HA-NC or HA-CYTL1; endogenous NDUFV1
[6] = molecular target: Flag-tagged NDUFV1, full length (human) (UniProt P49821); experiment: co-IP; HEK293T cells in which a third protein is co-expressed as blocker (Myc-CYTL1 with 20 μM MG132 for 6 h; HA-CYTL1 or HA-ΔCYTL1; Flag-NDUFV1) against a control vector

binding [1]: binds | binding [2]: binds | binding (Flag-NDU-Δ80-249 (human)): binds | binding [3]: binds | binding [4]: binds | binding [5]: binds
B1: HA-tagged full-length cytokine-like protein 1 (CYTL1) (protein, UniProt Q9NRR1 23-136)
chain: TPPTCYSRMRALSQEITRDFNLLQVSEPSEPCVRYLPRLYLDIHNYCVLDKLRDFVASPPCWKVAQVDSLKDKARKLYTIMNSFCRRDLVFLLDDCNALEYPIPVTTVLPDRQR

binding [1]: binds | binding [2]: binds
B2: HA-ΔCYTL1 (CYTL1 lacking the 1-22 aa signal peptide) (domain or fragment, UniProt Q9NRR1 23-136)
chain: B1 chain

binding [6]: binds
B3: Myc-CYTL1 (protein, UniProt Q9NRR1 23-136)
chain: B1 chain
